{"sequences": {"note": "Chains of the proteins cited; added tags and fusions are not shown.", "UniProt Q9Y6A2, whole entry": "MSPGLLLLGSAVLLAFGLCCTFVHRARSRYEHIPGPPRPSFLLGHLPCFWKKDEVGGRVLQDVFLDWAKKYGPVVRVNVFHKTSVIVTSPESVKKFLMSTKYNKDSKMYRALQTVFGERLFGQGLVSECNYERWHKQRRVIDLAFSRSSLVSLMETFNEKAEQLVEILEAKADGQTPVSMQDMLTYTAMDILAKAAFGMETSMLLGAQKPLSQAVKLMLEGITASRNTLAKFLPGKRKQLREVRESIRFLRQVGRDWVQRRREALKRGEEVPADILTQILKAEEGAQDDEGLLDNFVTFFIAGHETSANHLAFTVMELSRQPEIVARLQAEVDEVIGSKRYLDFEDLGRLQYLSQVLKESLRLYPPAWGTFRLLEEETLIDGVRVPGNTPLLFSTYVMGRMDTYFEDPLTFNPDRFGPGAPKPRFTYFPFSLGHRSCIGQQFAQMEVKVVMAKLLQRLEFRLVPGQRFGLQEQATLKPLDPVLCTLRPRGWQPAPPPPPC"}, "source": "patent US20220332699A1", "about": "(SAGE THERAPEUTICS, INC., priority 2019, published 2022)", "biological_target": "CYP46A1 (Homo sapiens, UniProt Q9Y6A2)", "assay": "CYP46A1 Enzyme Assay 2 (testosterone substrate, HPLC-MS)", "conditions": "read-out: IC50 (CYP46A1 inhibitory activity)", "method": "Briefly, in a 384-well plate format, 10 μL per well of an enzyme-substrate mixture of CYP46A1 (5 μM final concentration) and Testosterone ([…] final concentration) were dispensed to wells containing test compound. For CYP46A1 titration, 5 μL per well of serially diluted CYP46A1 (concentrations including 10 μM, 5 μM, and 2.5 μM) and Testosterone (concentration of […]) were dispensed. For Testosterone titration, 5 μL per well of serially diluted Testosterone (concentrations including 10 μM, 5 μM, and 2.5 μM) and CYP46A1 (concentration of 5 μM) were dispensed. The plates were centrifuged at 1000 rpm for 30 seconds, and then sealed and incubated at 37° C. for 30 minutes. The plate was removed from the incubator, and then 10 μL per well of NADPH-generating system were dispensed to initiate the reaction. The plates were incubated at 37° C. for 15 minutes, added with 80 μL per well of 100% methanol consisting 1 ng/ml diclofenac as internal standard, and then transferred for HPLC-MS.", "note": "Structures were worked out from names or drawings and are uncertain.", "data": [{"smiles": "Cc1ccccc1CC1(C#N)CCN(C(=O)c2cccnc2-c2ccncc2)CC1", "values": [{"measurement": "IC50", "value": "< 100", "unit": "nM"}]}]}
